Source: paper PMC4751549
No constants are given. Whether binding was seen depends on the method and setting. In cells and extracts the contact can be indirect. Some results given as binding are weak or reduced against the parent protein; the word gives no strength. Sequences can lack the tags named with a protein.

Protein sequences, listed by entry. Tags and fused reporters are not part of them. Lines headed by an entry give the natural chain unless they say otherwise; changes in a name come on top.
UniProt P36012: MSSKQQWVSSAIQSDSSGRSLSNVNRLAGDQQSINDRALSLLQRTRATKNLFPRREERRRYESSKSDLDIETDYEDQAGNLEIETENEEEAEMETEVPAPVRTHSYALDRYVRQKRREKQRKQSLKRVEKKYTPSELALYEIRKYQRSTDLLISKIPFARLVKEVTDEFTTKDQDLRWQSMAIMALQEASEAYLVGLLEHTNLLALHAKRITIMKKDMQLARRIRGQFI

Molecular target: T1, Ubp8-9myc (ubiquitin-specific processing protease 8, SAGA DUB module subunit) (S. cerevisiae) (UniProt P50102)
T1 sequence: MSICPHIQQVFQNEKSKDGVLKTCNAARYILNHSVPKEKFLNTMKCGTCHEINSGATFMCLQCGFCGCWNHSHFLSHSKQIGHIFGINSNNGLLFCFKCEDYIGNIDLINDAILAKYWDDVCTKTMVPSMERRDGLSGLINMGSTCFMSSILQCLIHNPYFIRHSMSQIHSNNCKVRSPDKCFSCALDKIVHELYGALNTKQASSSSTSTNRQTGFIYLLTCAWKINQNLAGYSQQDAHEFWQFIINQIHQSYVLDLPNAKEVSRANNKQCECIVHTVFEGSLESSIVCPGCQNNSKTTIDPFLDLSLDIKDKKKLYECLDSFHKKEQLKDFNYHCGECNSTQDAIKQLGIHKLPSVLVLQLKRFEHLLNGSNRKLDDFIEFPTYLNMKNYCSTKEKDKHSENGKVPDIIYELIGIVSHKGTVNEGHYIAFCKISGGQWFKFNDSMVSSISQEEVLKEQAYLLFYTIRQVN
Assay: co-IP; spheroplast lysates of the double-tagged yeast strain; Ubp8-9myc precipitated overnight at 4° with anti-myc antibody prebound to protein G Dynabeads; IP buffer 50 mM Tris pH 8, 1 mM EDTA, 50 mM NaCl, 1% NP-40; Cse4-6HA detected by anti-HA western blot

Substance: Cse4-6HA (centromeric histone variant Cse4, chromosome segregation protein 4) (from UniProt P36012 1-229)
- binding: binds
